# Laboratory results published in PubChem BioAssay AID493014 (National Center for Advancing Translational Sciences (NCATS), 2011).
# Some of the results follow. Further columns of the screen follow, without active or inactive calls. Compounds called inactive in the main read-out are mostly missing here. Potencies come from curve fits of mixed quality, noted in brackets.
# Experiment: qHTS Assay to Find Inhibitors of Chronic Active B-Cell Receptor Signaling
# Details: ABC-DLBCL IkBa-CBG/CBR reporter, luminescence ratio (green luciferase fused to IkBa over red control in TMD8 lymphoma cells), 4 h
# Summary of the method: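 Concentration-response series (up to 46 uM) were applied to TMD8 dual-reporter cells for 4 h at 37C with doxycycline. Green/red ratio, after filter-overlap correction, defined %Activity; red signal alone was normalised to basal cells and zero luminescence.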
# [1] = measured here: CBR red luminescence, cell number
# [2] = measured here: IkBa-CBG green luminescence
compound,measurement,setting,value
O=C(O)Cc1csc(Nc2cccc(Cl)c2)n1,AC50,[1],"0.731 µM [rising, partial curve, poor fit]"
O=c1c(-c2ccccc2)c(O)c2ccccc2n1-c1ccccc1,AC50,[1],"35.5 µM [rising, partial curve, poor fit]"
O=C(Nc1ccc2c(c1)OCCO2)c1cccc(Cl)c1Cl,AC50,[1],"12.6 µM [falling, partial curve, poor fit]"
CCOc1ccccc1C(=O)NC1CC2CCCC(C1)N2Cc1nnnn1Cc1ccco1 (stereo not drawn),AC50,[1],"2.51 µM [rising, partial curve, poor fit]"
O=C(CN1CCc2ccccc2C1)NCC(=O)Nc1ccc(F)cc1,AC50,[1],"8.91 µM [falling, partial curve]"
N#Cc1nc(-c2ccc(Cl)cc2)oc1N1CCCCC1,AC50,[1],"3.55 µM [rising, partial curve, poor fit]"
O=C(Nc1ccccc1O)c1csc2c1CCCC2,AC50,[1],"5.62 µM [falling, partial curve]"
Nc1ccccc1C(=O)Nc1cccc(C(=O)O)c1,AC50,[1],"3.16 µM [falling, full curve]"
COc1cccc(Cn2nnc(C(=O)Nc3cc(C)ccc3OC)c2N)c1,AC50,[1],"12.6 µM [rising, partial curve, poor fit]"
CCC(C)c1ccc(C(C)NC(=S)NC2CCCCC2)cc1 (stereo not drawn),AC50,[1],"22.4 µM [falling, single point]"
CC1CCN(c2c([N+](=O)[O-])c(=O)n(-c3ccccc3)c3ccccc23)CC1,AC50,[1],"4.47 µM [falling, full curve, poor fit]"
CCOCCCNC(=O)C1CCN(S(=O)(=O)N2CCCC2)CC1,AC50,[1],"2.24 µM [falling, full curve, poor fit]"
Cc1ccc(C(=O)COC(=O)c2ccco2)cc1C,AC50,[1],"2.51 µM [rising, full curve, poor fit]"
CCn1cc(CN2CCN(C)C(CCO)C2)c2ccccc21 (stereo not drawn),AC50,[1],"2 µM [rising, full curve, poor fit]"
CCN(CC)c1nc(OCCNC(=O)Nc2ccccc2)nc(N(CC)CC)n1,AC50,[1],"18.4 µM [falling, single point]"
same,AC50,[2],"32.6 µM [rising, partial curve, poor fit]"
COc1ccc(C)cc1NC(=O)C(Sc1nnc(Nc2ccccc2F)s1)c1ccccc1 (stereo not drawn),AC50,[2],"29.1 µM [rising, partial curve, poor fit]"
COCC(C)NCc1ccc(C)cc1C (stereo not drawn),AC50,[1],"29.1 µM [rising, single point]"
Clc1cccc(-c2nn3c(Cn4cnc5ccccc54)nnc3s2)c1,AC50,[1],"0.00517 µM [falling, full curve, poor fit]"
Cc1ccc2nc3sc(-c4nnc(-c5ccccc5[N+](=O)[O-])o4)c(N)c3cc2c1,AC50,[1],"2.31 µM [falling, partial curve]"
NC(=S)N/N=C/c1coc2ccc(O)cc2c1=O,AC50,[1],"0.891 µM [rising, full curve, poor fit]"
same,AC50,[2],"0.631 µM [rising, full curve, poor fit]"
CCOc1ccc(CN2CCN(Cc3cccn3-c3ncccn3)CC2CCO)cc1 (stereo not drawn),AC50,[1],"35.5 µM [falling, partial curve, poor fit]"
O=C(c1ccc(S(=O)(=O)Nc2ccccc2)cc1)N1CCC1,AC50,[1],"11.6 µM [rising, partial curve]"
CCOC(=O)Cn1c(=O)c2c(nc3n2CC(C)CN3Cc2ccccc2)n(C)c1=O (stereo not drawn),AC50,[1],"7.08 µM [falling, partial curve, poor fit]"
COc1ccc(-c2csc(N3CCN(c4cc(C)nc5ccccc45)CC3)n2)cc1OC,AC50,[1],"22.4 µM [falling, single point]"
O=C(O)C1CCCN(S(=O)(=O)Cc2ccccc2)C1 (stereo not drawn),AC50,[1],"35.5 µM [rising, single point]"
N#C/C(=C/c1ccc(N2CCOCC2)o1)c1ccc(Cl)cc1,AC50,[1],"0.891 µM [falling, full curve, poor fit]"
O=C(NCCC1=CCCCC1)c1ccc(F)cc1,AC50,[1],"29.1 µM [falling, single point]"
CN1CCN(CCNC(=O)Nc2ccc([N+](=O)[O-])cc2)CC1,AC50,[1],"35.5 µM [rising, single point]"
Cc1ccccc1CSCC(=O)NCc1ccco1,AC50,[1],"14.6 µM [rising, partial curve, poor fit]"
COc1ccc(/C=C/C(=O)NC(=S)NNC(=O)c2cnccn2)cc1,AC50,[1],"10 µM [rising, single point]"
COc1cc(CNCCN2CCOCC2)ccc1OCc1cccc(Cl)c1,AC50,[1],"29.1 µM [falling, single point]"
same,AC50,[2],"32.6 µM [rising, partial curve, poor fit]"
CC(C)(C)NC(=O)C(c1ccc(-c2ccccc2)cc1)N(C[C@H]1CC[C@@H]([C@@H]2CC[C@H](CO)O2)O1)C(=O)c1ccccc1F (stereo partly drawn),AC50,[1],"29.1 µM [falling, single point]"
COc1ccc(CC(=O)N(Cc2ccccc2)C(C)C)cc1,AC50,[1],"5.62 µM [rising, single point]"
COc1ccc(-n2cccc2/C=C2\C(=N)N3N=C(c4ccco4)SC3=NC2=O)cc1,AC50,[1],"1.41 µM [falling, full curve]"
CC(=O)Nc1cccc(C(=O)N/N=C/c2cccnc2)c1,AC50,[1],"35.5 µM [falling, single point]"
COc1cc([N+](=O)[O-])cc2sc(NC(C)=O)nc12,AC50,[1],"10 µM [falling, partial curve, poor fit]"
c1ccc(CN2CCN(CCCNc3ccc4nnc(-c5ccccc5)n4n3)CC2)cc1,AC50,[1],"3.66 µM [falling, full curve]"
O=[N+]([O-])/C(C(Cl)=C(Cl)Cl)=C1\Nc2ccccc2O1,AC50,[1],"0.794 µM [falling, full curve, poor fit]"
Cc1csc(NC(=O)C2CCCN2C(=O)Oc2ccccc2)n1 (stereo not drawn),AC50,[1],"20.6 µM [rising, single point]"
Cc1sc2ncnc(NCc3ccco3)c2c1C,AC50,[1],"8.91 µM [rising, partial curve]"
CCS(=O)(=O)N1N=C(c2ccccc2)CC1c1ccc2nccnc2c1 (stereo not drawn),AC50,[1],"23.1 µM [rising, single point]"
O=C(CSCc1cnn(-c2ccccc2)c1-n1cccc1)NCc1cccnc1,AC50,[1],"35.5 µM [falling, single point]"
O=C(N/N=C/c1c[nH]c2ccccc12)c1ccccc1,AC50,[1],"11.2 µM [falling, partial curve]"
CC(C)(C)C(=O)Nc1nc(-c2ccc3c(c2)OCO3)cs1,AC50,[1],"7.31 µM [falling, partial curve, poor fit]"
CCCC(O)(c1ccc(Br)cc1)C(CN1CCOCC1)c1ccc(Cl)cc1 (stereo not drawn),AC50,[1],"22.4 µM [falling, single point]"
COc1ccccc1N(C)S(=O)(=O)c1ccc(C(=O)NCCc2ccc(F)cc2)cc1,AC50,[1],"3.16 µM [rising, single point]"
Cc1ccnc(NC(=O)CNC(=O)c2sc3ccccc3c2Cl)c1,AC50,[1],"6.51 µM [rising, full curve]"
COc1cccc(NC(=O)c2cccc(N3C(=O)C4C5C=CC(C5)C4C3=O)c2)c1 (stereo not drawn),AC50,[1],"12.6 µM [falling, partial curve, poor fit]"
CCCSc1nnc2nc(C)cc(C)n12,AC50,[1],"0.164 µM [rising, partial curve, poor fit]"
COc1ccc2[nH]cc(C(O)CN3CCN(c4ccccc4)CC3)c2c1 (stereo not drawn),AC50,[1],"15.8 µM [falling, partial curve, poor fit]"
CC(=O)Nc1ccc(NC(=O)C(=O)NCC(c2ccco2)N2CCc3ccccc3C2)cc1 (stereo not drawn),AC50,[1],"29.1 µM [rising, single point]"
C/C(=N\Oc1cccc(F)n1)c1ccc(Cl)cc1Cl,AC50,[1],"3.66 µM [rising, full curve, poor fit]"
COc1ccc(CCC(=O)N(C)CC(=O)Nc2ccc(Cl)c(C(F)(F)F)c2)cc1,AC50,[1],"35.5 µM [falling, single point]"
COc1ccc(NC(=O)c2ccc(Cl)c(S(=O)(=O)N3CCc4ccccc4C3)c2)cn1,AC50,[1],"1.84 µM [falling, partial curve, poor fit]"
same,AC50,[2],"3.66 µM [rising, partial curve, poor fit]"
Cn1c(NC(=O)c2ccccc2NC(=O)C(C)(C)C)nc2ccccc21,AC50,[1],"11.6 µM [falling, partial curve]"
Cc1cc(C(=O)N2CCc3ccccc3C2)n[nH]1,AC50,[1],"35.5 µM [falling, single point]"
O=C(NC1CC1)C1CCN(C2CCN(C(=O)/C=C/c3ccc(F)cc3)CC2)CC1,AC50,[1],"0.398 µM [falling, full curve, poor fit]"
COc1ccc(NC(=O)c2sc(-c3ccccc3)nc2C)c(OC)c1,AC50,[1],"3.98 µM [rising, full curve, poor fit]"
Cc1cc(C)n(Cc2ccc(NC(=O)c3nn(C)cc3[N+](=O)[O-])cc2)n1,AC50,[1],"2.06 µM [falling, full curve, poor fit]"
Cc1cccc(-n2c(O)c(C=NCCCN3CCOCC3)c3ccccc3c2=O)c1,AC50,[1],"29.1 µM [falling, partial curve, poor fit]"
CC(=O)Nc1ccc(C(=O)/C=C/c2ccc[nH]2)cc1,AC50,[1],"10 µM [falling, partial curve, poor fit]"
COc1ccc(C(=O)O/N=C(\N)Cc2ccc(Cl)c(Cl)c2)cc1OC,AC50,[1],"20.6 µM [falling, single point]"
same,AC50,[2],"29.1 µM [rising, partial curve, poor fit]"
COC(=O)COc1ccc(S(=O)(=O)Nc2ccc3c(c2)OCO3)cc1,AC50,[1],"25.9 µM [falling, single point]"

# Some of the entries so far, bar-delimited:
compound | measurement | setting | value
NC(=S)N/N=C/c1coc2ccc(O)cc2c1=O | AC50 | [2] | 0.631 µM [rising, full curve, poor fit]
COc1ccccc1N(C)S(=O)(=O)c1ccc(C(=O)NCCc2ccc(F)cc2)cc1 | AC50 | [1] | 3.16 µM [rising, single point]
C/C(=N\Oc1cccc(F)n1)c1ccc(Cl)cc1Cl | AC50 | [1] | 3.66 µM [rising, full curve, poor fit]
